According to PubChem BioAssay AID504834 (National Center for Advancing Translational Sciences (NCATS), 2011):
The whole screen tested about 320,000 compounds, of which about 22,000 (6.9%) were called active. The shares of active, inactive and inconclusive entries below differ from those in the screen. Calls come from the whole dose curve; as a rule, active = well fitted inhibition curve with a large enough effect; inconclusive = small, poorly fitted or top-dose-only effect, or another doubt; inactive = no such curve, though single readings can be large or run the other way. A potency beside an inconclusive call is a rough fit, not a confirmed value.

Assay: Primary qHTS for delayed death inhibitors of the malarial parasite plastid, 96 hour incubation
Details: P. falciparum luciferase reporter growth; series mostly up to 28.7 µM; activity change, negative = inhibition: at the top concentration
Outline: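 96 h incubation, 37 C, 5% CO2, of luciferase-reporter P. falciparum-infected RBCs (2% hematocrit, 0.05% parasitemia final) with test compounds; endpoint luminescence.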
% is set by controls: 0 for no effect and ±100 for the full control effect; potency is the fitted concentration of half-maximal effect.

| SMILES | Potency | activity change, negative = inhibition |
| --- | --- | --- |
| COc1ccccc1C(CNc1ccc(S(=O)(=O)N2CCCC2)cc1[N+](=O)[O-])N(C)C (centres undefined) | inconclusive: 8.28 µM [inhibitor, single point] | – |
| O=C(CN1CC[n+]2c(-c3cccs3)csc21)c1ccc(-c2ccccc2)cc1 | inconclusive: 13.1 µM [inhibitor, single point] | – |
| Clc1ccc2oc(-c3ccccc3)nc2c1 | – | inactive: 97.6% |
| CSc1nc(C)cc(NC(N)=O)n1 | inconclusive: 5.22 µM [inhibitor, single point] | – |
| Cn1cc(CN2CCC(C(=O)Nc3cccc(-c4cccc(F)c4)c3)CC2)cn1 | inconclusive: 18.5 µM [inhibitor, single point] | – |
| C=CCOC(=O)C1=C(C)NC(SCC(=O)Nc2nccs2)=C(C#N)C1c1cccs1 (centres undefined) | active: 4.15 µM | – |
| Cc1ccc(C)c(C(=O)COC(=O)C(C)N2C(=O)C3C4CCC(C4)C3C2=O)c1 (centres undefined) | inconclusive: 11.7 µM [inhibitor, single point] | – |
| CC(=O)N1CCN(C(=O)CCNS(=O)(=O)c2ccccc2)CC1 | inconclusive: 16.5 µM [inhibitor, single point] | – |
| Fc1ccc(NCc2nnc3n2CCCCC3)cc1 | – | inactive: 4.43% |
| O=[N+]([O-])c1cccc(S(=O)(=O)NCc2ccccn2)c1 | – | inactive: 15.5% |
| Cc1cc(=O)[nH]c(N/N=C/c2ccc(Cl)c([N+](=O)[O-])c2)n1 | inconclusive: 16.5 µM [inhibitor, single point] | – |
| CCSCCOC(=O)C1=C(C)NC2=C(C(=O)CCC2)C1c1coc2ccccc2c1=O (centres undefined) | inconclusive: 11.7 µM [inhibitor, partial curve] | – |
| O=C(NCCSc1c[nH]c2ccccc12)C1CC1 | inconclusive: 3.7 µM [inhibitor, full curve] | – |
| CNC(=S)N(CCO)Cc1cc2cc3c(cc2[nH]c1=O)OCCO3 | inconclusive: 5.22 µM [inhibitor, partial curve, poor fit] | – |
| O=C(C[n+]1ccc(/C=C/c2ccccc2)cc1)c1ccc2c(c1)OCCO2 | inconclusive: 2.94 µM [inhibitor, full curve, poor fit] | – |
| Cc1nnc2sc(SCC(=O)Nc3ccc(Br)cc3)nn2c1=O | inconclusive: 2.08 µM [inhibitor, full curve, poor fit] | – |
| O=C(NCCO)/C(=C\c1cccc([N+](=O)[O-])c1)NC(=O)c1ccco1 | – | inactive: -5.22% |
| COc1cc2c(cc1OC)C1(Nc3c-2c(-c2ccccc2)nn3-c2ccccc2)C(=O)Nc2ccccc21 (centres undefined) | – | inactive: 175% |
| O=C(O)C1CN(C(=O)c2ccccc2)c2cc(Cl)ccc2O1 (centres undefined) | inconclusive: 2.08 µM [inhibitor, full curve] | – |
| CS(=O)(=O)c1ccc(-c2nn[nH]n2)cc1 | inconclusive: 0.104 µM [inhibitor, full curve, poor fit] | – |
| C=CCn1c(C)cc(C2=NNC(=NC(C)(C)C)SC2)c1C | – | inactive: 0% |
| COc1ccc(CC2(CO)CCN(Cc3cnc(-c4ccccc4C)nc3)CC2)cc1 | inconclusive: 13.1 µM [inhibitor, single point] | – |

At a glance, part of the list above.

| SMILES | Potency | activity change, negative = inhibition |
| --- | --- | --- |
| O=C(CN1CC[n+]2c(-c3cccs3)csc21)c1ccc(-c2ccccc2)cc1 | inconclusive: 13.1 µM [inhibitor, single point] | – |
| Clc1ccc2oc(-c3ccccc3)nc2c1 | – | inactive: 97.6% |

The results go on.

| SMILES | Potency | activity change, negative = inhibition |
| --- | --- | --- |
| COC(=O)c1nc2ccc(C)cn2c1F | – | inactive: -15.3% |
| Cc1nn(Cc2noc(C(=O)NCC3CCCO3)n2)c(C)c1Br (centres undefined) | inconclusive: 7.38 µM [inhibitor, single point] | – |
| CCOC(=O)/C=C/C(=O)OCC(=O)NCc1ccccc1 | inconclusive: 18.5 µM [inhibitor, single point] | – |
| O=C(Nc1ccnn1C1CCN(C(=O)c2ccc(Cl)c(F)c2)CC1)C1CCOC1 (centres undefined) | inconclusive: 16.5 µM [inhibitor, single point] | – |
| Cc1ccc(C2CC(c3cccs3)=NN2C(=O)CSc2nc3ccccc3o2)cc1 (centres undefined) | inconclusive: 18.5 µM [inhibitor, single point] | – |
| CCOC(=O)c1cnn(-c2ccccc2)c1NC(=O)CN1CCOCC1 | – | inactive: -0.95% |
| CC(C)CN(C(=O)COC(=O)c1c(Cl)ccc(Cl)c1Cl)C1CCS(=O)(=O)C1 (centres undefined) | active: 11.7 µM | – |
| CC(=O)n1cc(Nc2ccc([N+](=O)[O-])cc2)c2ccccc21 | – | inactive: 62% |
| COc1cc(Cl)ccc1OCc1cc(C(=O)N2CCN(C)CC2)no1 | inconclusive: 20.8 µM [inhibitor, single point] | – |
| COc1cc(-n2c(=O)c3ccccc3n(Cc3cccc(C)c3)c2=O)cc(OC)c1OC | inconclusive: 10.4 µM [inhibitor, single point] | – |
| Cc1ccccc1CNC(=O)CC1C(=O)NCCN1CC1CCCCC1 (centres undefined) | inconclusive: 10.4 µM [inhibitor, single point] | – |
| Cc1ccn2cc(CCNC(=O)c3ccc(Br)o3)nc2c1 | inconclusive: 18.5 µM [inhibitor, single point] | – |
| Cc1cccc(NC(=O)CN(c2ccc(C(C)C)cc2)S(=O)(=O)c2c(C)nn(C)c2C)n1 | active: 2.94 µM | – |
| Cc1cc(C)c[n+](C2=C([O-])c3ccccc3C(=O)/C2=N\S(=O)(=O)c2cccs2)c1 | inconclusive: 1.65 µM [inhibitor, full curve, poor fit] | – |
| O=C(COc1cccc2ccccc12)Nc1cc(S(=O)(=O)N2CCOCC2)ccc1N1CCOCC1 | inconclusive: 1.85 µM [inhibitor, full curve, poor fit] | – |
| CSc1c(SCc2ccccc2)cnn(Cc2ccccc2)c1=O | active: 9.28 µM | – |
| COc1ccc2oc(C(=O)N(Cc3ccco3)Cc3cccs3)c(C)c2c1 | inconclusive: 10.4 µM [inhibitor, partial curve, poor fit] | – |
| Cc1nn(C)cc1S(=O)(=O)NCc1ccccc1Cl | inconclusive: 2.08 µM [inhibitor, single point] | – |
| c1ccc(Nc2nc(N3CCCC3)nc(N3CCCC3)n2)cc1 | active: 11.7 µM | – |
| Cc1ccc(/C=C/C(=O)N2CCC(Cc3ccccc3)CC2)cc1 | inconclusive: 11.7 µM [inhibitor, single point] | – |
| Cc1ccc(Nc2nc3ccccc3c(=O)s2)cc1 | inconclusive: 1.85 µM [inhibitor, partial curve, poor fit] | – |
| COc1ccc(CN(C)C(=O)CCc2ccc(S(=O)(=O)N3CCCCCC3)cc2)c(OC)c1 | inconclusive: 7.38 µM [inhibitor, partial curve, poor fit] | – |
